Data reported in PubChem BioAssay AID2685 (National Center for Advancing Translational Sciences (NCATS), 2010).
In all, about 320,000 compounds went through this assay and about 2,100 (0.66%) were called active. Inconclusive results, whose numbers are uncertain, are shown with a selection of clear calls. Calls come from the whole dose curve; as a rule, active = well fitted inhibition curve with a large enough effect in the signal ratio, with a control signal flat (not every such curve was filed as active); inconclusive = small, poorly fitted or top-dose-only effect, or effect the other way, or a change in a side signal; inactive = flat fitted curve, though single readings scatter; the % refers to the signal ratio. Potencies of inconclusive entries are doubtful fits and often do not repeat.

Assay: qHTS Assay for Lipid Storage Modulators in Drosophila S3 Cells
Conditions: BODIPY lipid droplet fluorescence, 18-24 h, cells fed with added oleic acid; lipid storage change, negative = inhibition: at 46.1 µM (top of the series) unless noted
Outline: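 Drosophila S3 cells loaded with oleic acid (400 uM, as added) and compounds at several concentrations; lipid droplets imaged by 488-nm laser-scanning cytometry, 500–530 nm intensity and object ratio to cell channel. Percent activity normalized to 20 uM Triacsin C.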
% is set by controls: 0 for no effect and ±100 for the full control effect; potency is the fitted concentration of half-maximal effect.

| Structure (SMILES) | lipid storage change, negative = inhibition | Potency | outcome |
| --- | --- | --- | --- |
| CC(=O)Nc1sc2c(c1C#N)CCC2 | inconclusive: 8.87% |  |  |
| COCCn1c(SCC(=O)Nc2cc(C)on2)nc2c(c1=O)SCC2 | inconclusive: -13.4% |  |  |
| O=C(CN1CC(=O)Oc2ccccc21)NCc1ccco1 | inconclusive: 9.44% |  |  |
| Cc1cc(Cl)ccc1OCC(=O)N1CC(C)CC(C)C1 (centres undefined) | inconclusive: 0.434% |  |  |
| N=c1c(C(=O)NCC2CCCO2)cc2c(=O)n3ccccc3nc2n1Cc1ccc(F)cc1 (centres undefined) | inconclusive: -15.2% |  |  |
| CCNC(=S)NCc1ccco1 | inconclusive: 37.3% |  |  |
| COc1ccc(C(c2nnnn2CC2CCCO2)N2CCN(c3cccc(C)c3C)CC2)cc1 (centres undefined) | inconclusive: 0.947% |  |  |
| CN(C)c1[nH]c(=O)c(C#N)c2c1CCN2Cc1ccccc1 | inconclusive: -11% |  |  |
| Cc1ccc2[nH]c(=O)c(CN(C(=O)c3cccc([N+](=O)[O-])c3)C(C)C)cc2c1 | inconclusive: 3% |  |  |
| CCN1CCc2c(OCC(=O)N3CCCc4ccccc43)cccc2C1=O | inconclusive: -12.4% |  |  |
| O=C(Nc1ccc(S(=O)(=O)N2CCc3ccccc32)cc1)c1ccco1 | inconclusive: 29% |  |  |
| Cc1ccc(N(Cc2ccccc2)C(=O)Cc2ccc(S(=O)(=O)N3CCOCC3)s2)cc1 | inconclusive |  |  |
| CCOC(=O)C1CCN(S(=O)(=O)c2ccc(OCC(=O)OC)cc2)CC1 |  | inconclusive: 0.0041 µM [falling, full curve, poor fit] |  |
| O=C(CCN1C(=O)c2ccncc2C1=O)NCc1ccc(Cl)cc1 | inconclusive: 17.1% |  |  |
| COc1ccccc1NS(=O)(=O)c1cc(NC(=O)CCNC(C)=O)ccc1N1CCCCC1 | inconclusive: -43.6% |  |  |
| O=S(=O)(c1ccc(N2CCOCC2)nc1)N(Cc1ccccn1)Cc1ccccn1 | inconclusive: 11.8% |  |  |
| O=C(O)c1csc(Br)c1Br |  | inconclusive: 0.116 µM [activator, full curve, poor fit] |  |
| CCOC(=O)c1c(NC(=O)CC)sc(C(=O)NC2CCCC2)c1C |  | inconclusive: 6.51 µM [falling, full curve, poor fit] |  |
| COc1ccccc1NC(=O)CSc1nnc(C2CCCCC2)n1N | inconclusive: 25.9% |  |  |
| COc1ccccc1NC=C1C(=O)OC(C)(C)OC1=O | inconclusive: 6.74% |  |  |
| CC(=O)NC(Cc1ccc(C)cc1)C(=O)NC1CCN(c2ncccc2[N+](=O)[O-])CC1 (centres undefined) |  | inconclusive: 29.1 µM [activator, partial curve] |  |
| COc1ccc(OC)c(C(=O)NC(CC(N)=O)c2ccc(NCc3ccccn3)c([N+](=O)[O-])c2)c1 (centres undefined) | inconclusive: -6.43% |  |  |
| CCOc1ccc(C(C)=O)cc1COC(=O)CCc1cc(OC)c(OC)c(OC)c1 |  | inconclusive: 6.51 µM [falling, single point] |  |
| CC(=O)c1ccc(Nc2ncnc3c2oc2ccccc23)cc1 |  | inconclusive: 1.3 µM [activator, full curve] |  |
| COc1ccccc1C(=O)NCC(=O)OCC(=O)c1ccc(Cl)s1 | inconclusive |  |  |
| CC(=O)N1CCCc2cc(S(=O)(=O)N3CCCC(C(=O)NCc4ccc(C)cc4)C3)ccc21 (centres undefined) | inconclusive: 6.67% |  |  |
| CCCn1nnnc1NC(=O)c1cc(Br)ccc1OC | inconclusive: 8.78% |  |  |

| Structure (SMILES) | lipid storage change, negative = inhibition | Potency | outcome |
| --- | --- | --- | --- |
| Cn1c(=O)[nH]c(=O)c2c1nc(N1CCOCC1)n2CC(O)COc1ccccc1 (centres undefined) |  | inconclusive: 25.9 µM [activator, single point] |  |
| O=C(O)C1C2CCC(CC2)C1C(=O)N1CCN(Cc2ccc(F)cc2)CC1 (centres undefined) | inconclusive: 34.1% |  |  |
| CCOc1ccc(S(=O)(=O)N2CCCC(C(=O)NCc3ccncc3)C2)cc1Cl (centres undefined) |  | active: 1.03 µM |  |
| CCCCC(=O)Nc1ccc2c(c1)nc(CCN1CCOCC1)n2C |  | inconclusive: 18.4 µM [activator, single point] |  |
| Cn1c(=NCC(O)COc2ccccc2)sc2ccccc21 (centres undefined) | inconclusive: 18.4% |  |  |
| Cc1cc(C)c(C(=O)Nn2c(C)nc3ccccc3c2=O)cc1C | inconclusive: 11.8% |  |  |
| Cc1ccc(S(=O)(=O)c2c(C)cc(C)nc2N2CCCC2)cc1 | inconclusive: 11.5% |  |  |
| Cc1cc(C(=O)NCC(=O)OCC(=O)NCCc2ccccc2)ccc1[N+](=O)[O-] | inconclusive: -33.3% [at 0.00295 µM] |  |  |
| O=S(=O)(Nc1ccc(N2CCOCC2)nn1)c1ccccc1 |  | inconclusive: 6.51 µM [falling, single point] |  |
| COc1ccccc1NS(=O)(=O)c1ccc(C(=O)N2CCN(c3ccccc3O)CC2)cc1 | inconclusive |  |  |
| COc1ccc(C2CC3(CC(C)(C)NC(=O)N3)Oc3cc(O)ccc32)cc1 (centres undefined) |  | inconclusive: 0.0517 µM [falling, full curve, poor fit] |  |
| O=C(c1ccc2c(c1)N(Cc1ccc(F)cc1)C(=O)CS2)N1CCOCC1 | inconclusive: 49.5% |  |  |
| CN(CCc1ccccc1)C(=O)c1cc(COc2cccc(C(F)(F)F)c2)on1 |  | inconclusive: 29.1 µM [falling, single point] |  |
| O=C(NCCS(=O)(=O)c1ccc(Br)cc1)c1ccc(Cl)cc1Cl | inconclusive: 17.3% |  |  |
| CC(CC(=O)N1CCN(c2ccccc2)CC1)S(=O)(=O)c1ccc2c(c1)NC(=O)CS2 (centres undefined) |  |  | inactive [at 46.1 µM] |
| CC1CC(C)CN(CCCNC(=O)CCC(=O)N2CCOc3ccccc32)C1 (centres undefined) | inconclusive: 8.21% |  |  |
| CC1=CC(=O)C(C(C)=Nc2ccccc2Cl)C(=O)O1 (centres undefined) | inconclusive: -4.73% |  |  |
| CNC(=S)N(CCc1c(C)[nH]c2ccc(C)cc12)Cc1cc(OC)c(OC)c(OC)c1 | inconclusive: -2.49% |  |  |
| COc1cccc(-n2c(Cc3cc(=O)[nH]c(=O)[nH]3)nnc2SCC(=O)NC2CCCC2)c1 | inconclusive: 0.199% [at 9.22 µM] |  |  |
| COC(=O)c1ccccc1NC(=O)c1cc(C)no1 | inconclusive: -78.1% |  |  |
| CCOC(=O)N1CCC(NC(=O)Cn2cc3c(n2)CCCCC3)CC1 | inconclusive: 6.35% |  |  |
| CCOCCCNc1c(CC)c(C)c(C#N)c2nc3ccccc3n12 |  | inconclusive: 29.1 µM [falling, single point] |  |
| O=C(O)c1ccc(S(=O)(=O)NC2CCCc3ccccc32)cc1 (centres undefined) | inconclusive: 5.2% |  |  |
| O=C(N/N=C/c1ccncc1)c1cccs1 | inconclusive: 13.7% |  |  |
| COc1ccc(/C=C2\SC(=O)N(CCNC(=O)Cc3coc4cc(C)ccc34)C2=O)cc1OC | inconclusive: 17.4% |  |  |
| CN1CCc2c(C#N)c(N3CCCCC3)nc(NCc3ccccc3)c2C1 |  | inconclusive: 29.1 µM [cytotoxic, single point] |  |
| Fc1ccc(C2C3=C(Nc4ncnn42)c2ccccc2OC3c2ccncc2)cc1 (centres undefined) | inconclusive: -11.1% |  |  |

Quoted at random: 2 records from the list

| Structure (SMILES) | lipid storage change, negative = inhibition | Potency | outcome |
| --- | --- | --- | --- |
| CC(CC(=O)N1CCN(c2ccccc2)CC1)S(=O)(=O)c1ccc2c(c1)NC(=O)CS2 (centres undefined) |  |  | inactive [at 46.1 µM] |
| O=C(NCCS(=O)(=O)c1ccc(Br)cc1)c1ccc(Cl)cc1Cl | inconclusive: 17.3% |  |  |

Some of the entries above, reformatted.
Structure (SMILES),"lipid storage change, negative = inhibition",Potency,outcome
O=S(=O)(c1ccc(N2CCOCC2)nc1)N(Cc1ccccn1)Cc1ccccn1,inconclusive: 11.8%,,
O=C(O)c1csc(Br)c1Br,,"inconclusive: 0.116 µM [activator, full curve, poor fit]",
CCOC(=O)c1c(NC(=O)CC)sc(C(=O)NC2CCCC2)c1C,,"inconclusive: 6.51 µM [falling, full curve, poor fit]",

More records follow:

| Structure (SMILES) | lipid storage change, negative = inhibition | Potency | outcome |
| --- | --- | --- | --- |
| Fc1cc(F)c2nc(Nc3nc4c(F)cccc4s3)sc2c1 | inconclusive: -0.791% |  |  |
| CC(=O)OCCNc1cc(N2CCN(C)CC2)c2noc3c2c1C(=O)c1ccccc1-3 | inconclusive: -24.4% |  |  |
| CC1(C)NC(=O)N(CC(=O)O)C1=O |  | inconclusive: 4.11 µM [activator, single point] |  |
| C[C@H](NC(=O)c1ccccc1Cl)C(=O)OCC(=O)NNC(=O)c1cccs1 | inconclusive |  |  |
| CCOc1cc(/C=N/NC(=O)c2cccnc2)ccc1OCC(=O)N(C)C | inconclusive: 0.473% |  |  |
| COc1ccccc1NC(=O)CCCc1nc(-c2ccc(OC)c(OC)c2)no1 | inconclusive: 11.9% |  |  |
| CSc1ccc(S(=O)(=O)NCC(=O)OCC(=O)NCc2ccco2)cc1[N+](=O)[O-] | inconclusive |  |  |
| CCOC(=O)c1ccc(-c2ccc(/C=N/NC(=O)CN(c3ccccc3Br)S(C)(=O)=O)o2)cc1 |  | active: 9.2 µM |  |
| Cc1ccc(NC(=O)Cn2cccc2C2=NC(c3ccccc3)CO2)cc1C (centres undefined) | inconclusive: 26.4% |  |  |
| CC(=O)c1cc(CN2CCN(Cc3ccccc3)C(CCO)C2)cs1 (centres undefined) | inconclusive: -26.6% |  |  |
| Cc1ccc(C)c(Sc2ccc(S(=O)(=O)Nc3ccc(C(=O)O)cc3)cc2)c1 | inconclusive: 68.3% |  |  |
| CCOC(=O)COc1ccc(/C=C2\NC(=S)N(CC)C2=O)cc1 | inconclusive: 3.55% |  |  |
| COCCn1c(SCc2nnc(-c3ccccc3)o2)nc2sc3c(c2c1=O)CCC3 | inconclusive: 8.64% |  |  |
| COc1ccc(NC(=O)COc2ccc(C)nc2[N+](=O)[O-])cc1S(N)(=O)=O |  | inconclusive: 20.6 µM [activator, single point] |  |
| COc1ccc(/C(N)=N/OC(=O)/C=C/c2ccccc2)cc1 | inconclusive: 41.2% |  |  |
| Fc1cccc2sc(N3CCCC3)nc12 |  | inconclusive: 29.1 µM [falling, single point] |  |
| CCN(CC)C(=O)c1ccc(/C=C/c2c[nH]c3ccccc23)[n+](C)c1 | inconclusive: 1.67% |  |  |
| CCOc1ccc(N/C=C/C(=O)c2ccccc2)c([N+](=O)[O-])c1 | inconclusive: -39.4% |  |  |
| CCOc1ccc(C2C(C(=O)c3ccc(C)o3)=C(O)C(=O)N2CCN2CCOCC2)cc1OC (centres undefined) | inconclusive: -17.7% |  |  |
| COc1ccc(CCNC(=O)COc2ccc3c(c2)OCO3)cc1 | inconclusive: -17.7% |  |  |
| Cc1ccc(C(=O)CNc2cccc([N+](=O)[O-])c2)cc1 | inconclusive: 5.36% |  |  |
| CCCN1CCN(CCCNC(=O)C2CCCN(c3nnc(-n4cccc4)s3)C2)CC1 (centres undefined) | inconclusive: 10.5% |  |  |
| CCCc1cc(=O)n2[nH]c(SCc3ccc(Cl)cc3)nc2n1 |  | inconclusive: 9.2 µM [falling, single point] |  |
| COc1ccc(C2=Nn3c(nnc3-c3ccccn3)SC2)cc1OC | inconclusive: 4.92% [at 9.22 µM] |  |  |
| CN1C(=O)c2cccc(NCCCN3C(=O)c4ccccc4C3=O)c2C1=O |  | inconclusive: 6.51 µM [activator, single point] |  |
